Measurements reported in PubChem BioAssay AID1224828 (NIAID, 2016)

- Purpose: 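Knock-downs that increase or decrease LPS-induced p65 nuclear translocation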 (primary screen)
- Cell system: mouse RAW264.7 G9 macrophage reporter cells (GFP-p65, Tnf promoter-mCherry)
- Knock-down reagent: siRNA pool against mouse genes, 100 nM
- Timing: 2 days siRNA transfection, then 40 min LPS before fixation
- Challenge: LPS (Salmonella minnesota R595) at 10 ng/ml
- Detection: 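Microscopy ratio of nuclear to perinuclear-ring GFP-p65 signal, scaled to the plate median; gene score is the average of two replicate robust z-scores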
- Reading the numbers: p65 translocation robust z-score: higher = more nuclear NF-kappaB p65 after LPS than the plate median; nuclear/cytoplasmic p65 ratio: higher = more nuclear NF-kappaB p65
- Call rule: 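Called active when z exceeds 3.3 or falls under -1.56 (median of Tlr4 controls), giving activity score of at least 50; no calls for control wells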
- Calls: active = hit (p65 shift raised or lowered); inactive = no clear change
In all, the deposit lists about 17,000 reagents; shown is a part drawn at random. Over the whole deposit, 762 (4.5%) got an active call. 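Active calls include both raised and lowered p65 entry, mostly lowered; wells with fewer than 50 cells lack a z-score.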 Raw values are not corrected between plates. Unmarked entries are inactive. Reagent sequences are not shown.

After knock-down of Acad12, the record shows p65 translocation robust z-score -0.38; nuclear/cytoplasmic p65 ratio, rep 1 = 1.37; nuclear/cytoplasmic p65 ratio, rep 2 = 1.5; low cell count flag enough cells to score. Nol11 showed p65 translocation robust z-score 0.43; nuclear/cytoplasmic p65 ratio, rep 1 = 1.54; nuclear/cytoplasmic p65 ratio, rep 2 = 1.57; low cell count flag enough cells to score. With knock-down of Scd4, the record shows p65 translocation robust z-score 0.37; nuclear/cytoplasmic p65 ratio, rep 1 = 1.4; nuclear/cytoplasmic p65 ratio, rep 2 = 1.31; low cell count flag enough cells to score. After knock-down of C1ra, the screen gave p65 translocation robust z-score -0.15; nuclear/cytoplasmic p65 ratio, rep 1 = 1.62; nuclear/cytoplasmic p65 ratio, rep 2 = 1.57; low cell count flag enough cells to score. With knock-down of Or5d47 the results were p65 translocation robust z-score -1.64 (active); nuclear/cytoplasmic p65 ratio, rep 1 = 1.22; nuclear/cytoplasmic p65 ratio, rep 2 = 1.11; low cell count flag enough cells to score. With knock-down of Jkampl, the screen gave nuclear/cytoplasmic p65 ratio, rep 1 = 1.15; nuclear/cytoplasmic p65 ratio, rep 2 = 1.21; low cell count flag fewer than 50 cells per well; well left out of scoring.

With knock-down of Sprr1a the results were p65 translocation robust z-score -0.21; nuclear/cytoplasmic p65 ratio, rep 1 = 1.41; nuclear/cytoplasmic p65 ratio, rep 2 = 1.19; low cell count flag enough cells to score. After knock-down of Mre11a, the record shows p65 translocation robust z-score -0.08; nuclear/cytoplasmic p65 ratio, rep 1 = 1.34; nuclear/cytoplasmic p65 ratio, rep 2 = 1.42; low cell count flag enough cells to score. For Azi2 the deposit lists p65 translocation robust z-score 2.08; nuclear/cytoplasmic p65 ratio, rep 1 = 1.82; nuclear/cytoplasmic p65 ratio, rep 2 = 1.88; low cell count flag enough cells to score. After knock-down of Mak the results were nuclear/cytoplasmic p65 ratio, rep 1 = 1.75; nuclear/cytoplasmic p65 ratio, rep 2 = 1.45; low cell count flag fewer than 50 cells per well; well left out of scoring. Against Cxcl10, the entry reads p65 translocation robust z-score -1; nuclear/cytoplasmic p65 ratio, rep 1 = 1.54; nuclear/cytoplasmic p65 ratio, rep 2 = 1.25; low cell count flag enough cells to score. With knock-down of Selenop, the record shows p65 translocation robust z-score 0.35; nuclear/cytoplasmic p65 ratio, rep 1 = 1.49; nuclear/cytoplasmic p65 ratio, rep 2 = 1.26; low cell count flag enough cells to score.

Depletion of Rnf40 gave: nuclear/cytoplasmic p65 ratio, rep 1 = 1.3; nuclear/cytoplasmic p65 ratio, rep 2 = 1.03; low cell count flag fewer than 50 cells per well; well left out of scoring. AI606181 showed p65 translocation robust z-score 2.24; nuclear/cytoplasmic p65 ratio, rep 1 = 1.93; nuclear/cytoplasmic p65 ratio, rep 2 = 2.05; low cell count flag enough cells to score. Knock-down of Tcea1 came out at: p65 translocation robust z-score 0.61; nuclear/cytoplasmic p65 ratio, rep 1 = 1.54; nuclear/cytoplasmic p65 ratio, rep 2 = 1.67; low cell count flag enough cells to score.

Called active, among the entries above:
Or5d47 → p65 translocation robust z-score: -1.64 (active); nuclear/cytoplasmic p65 ratio, rep 1: 1.22; nuclear/cytoplasmic p65 ratio, rep 2: 1.11; low cell count flag: enough cells to score

The list goes on:
Knock-down of Slc26a9 came out at: p65 translocation robust z-score -0.34; nuclear/cytoplasmic p65 ratio, rep 1 = 1.36; nuclear/cytoplasmic p65 ratio, rep 2 = 1.19; low cell count flag enough cells to score. With knock-down of Cbln1, the screen gave p65 translocation robust z-score -0.04; nuclear/cytoplasmic p65 ratio, rep 1 = 1.55; nuclear/cytoplasmic p65 ratio, rep 2 = 1.82; low cell count flag enough cells to score. Silencing of Stil came out at: p65 translocation robust z-score 0.86; nuclear/cytoplasmic p65 ratio, rep 1 = 1.84; nuclear/cytoplasmic p65 ratio, rep 2 = 1.51; low cell count flag enough cells to score. Hells scored p65 translocation robust z-score 1.79; nuclear/cytoplasmic p65 ratio, rep 1 = 2.01; nuclear/cytoplasmic p65 ratio, rep 2 = 1.71; low cell count flag enough cells to score. With knock-down of Gm5069, the screen gave p65 translocation robust z-score 0.53; nuclear/cytoplasmic p65 ratio, rep 1 = 1.86; nuclear/cytoplasmic p65 ratio, rep 2 = 1.57; low cell count flag enough cells to score. Fto gave p65 translocation robust z-score 1.36; nuclear/cytoplasmic p65 ratio, rep 1 = 1.82; nuclear/cytoplasmic p65 ratio, rep 2 = 1.63; low cell count flag enough cells to score.

Knock-down of Smad5 came out at: p65 translocation robust z-score -0.35; nuclear/cytoplasmic p65 ratio, rep 1 = 1.49; nuclear/cytoplasmic p65 ratio, rep 2 = 1.51; low cell count flag enough cells to score. For C130050O18Rik, the values are p65 translocation robust z-score 0.5; nuclear/cytoplasmic p65 ratio, rep 1 = 1.47; nuclear/cytoplasmic p65 ratio, rep 2 = 1.62; low cell count flag enough cells to score. For Ppm1d, the entry reads p65 translocation robust z-score 0.71; nuclear/cytoplasmic p65 ratio, rep 1 = 1.57; nuclear/cytoplasmic p65 ratio, rep 2 = 1.53; low cell count flag enough cells to score. Depletion of Krt9 came out at: p65 translocation robust z-score -0.05; nuclear/cytoplasmic p65 ratio, rep 1 = 1.5; nuclear/cytoplasmic p65 ratio, rep 2 = 1.35; low cell count flag enough cells to score. Knock-down of Dbndd2 came out at: p65 translocation robust z-score 0.94; nuclear/cytoplasmic p65 ratio, rep 1 = 1.65; nuclear/cytoplasmic p65 ratio, rep 2 = 1.74; low cell count flag enough cells to score. For Zbtb17, the values are p65 translocation robust z-score -0.4; nuclear/cytoplasmic p65 ratio, rep 1 = 1.47; nuclear/cytoplasmic p65 ratio, rep 2 = 1.43; low cell count flag enough cells to score.
